Laboratory results as given in paper PMC7066131.
No constants are given. Whether binding was seen depends on the method and setting. In cells and extracts the contact can be indirect. Some results given as binding are weak or reduced against the parent protein; the word gives no strength. Where a sequence is shown, tags or fusion partners need not be part of it.

Legend:
Assay in all cases: co-IP; co-IP of MYC-PAQR3 with EGFP-NBEAL1 domain constructs (PH-BEACH-WD40, BEACH-WD40, BEACH) and full length EGFP-NBEAL1 as positive control (Supplemental Fig. 6)
[1] = target: T1, EGFP-PH-BEACH-WD40 (NBEAL1 aa 1815–2694) (human) (UniProt Q6ZS30)
T1 sequence: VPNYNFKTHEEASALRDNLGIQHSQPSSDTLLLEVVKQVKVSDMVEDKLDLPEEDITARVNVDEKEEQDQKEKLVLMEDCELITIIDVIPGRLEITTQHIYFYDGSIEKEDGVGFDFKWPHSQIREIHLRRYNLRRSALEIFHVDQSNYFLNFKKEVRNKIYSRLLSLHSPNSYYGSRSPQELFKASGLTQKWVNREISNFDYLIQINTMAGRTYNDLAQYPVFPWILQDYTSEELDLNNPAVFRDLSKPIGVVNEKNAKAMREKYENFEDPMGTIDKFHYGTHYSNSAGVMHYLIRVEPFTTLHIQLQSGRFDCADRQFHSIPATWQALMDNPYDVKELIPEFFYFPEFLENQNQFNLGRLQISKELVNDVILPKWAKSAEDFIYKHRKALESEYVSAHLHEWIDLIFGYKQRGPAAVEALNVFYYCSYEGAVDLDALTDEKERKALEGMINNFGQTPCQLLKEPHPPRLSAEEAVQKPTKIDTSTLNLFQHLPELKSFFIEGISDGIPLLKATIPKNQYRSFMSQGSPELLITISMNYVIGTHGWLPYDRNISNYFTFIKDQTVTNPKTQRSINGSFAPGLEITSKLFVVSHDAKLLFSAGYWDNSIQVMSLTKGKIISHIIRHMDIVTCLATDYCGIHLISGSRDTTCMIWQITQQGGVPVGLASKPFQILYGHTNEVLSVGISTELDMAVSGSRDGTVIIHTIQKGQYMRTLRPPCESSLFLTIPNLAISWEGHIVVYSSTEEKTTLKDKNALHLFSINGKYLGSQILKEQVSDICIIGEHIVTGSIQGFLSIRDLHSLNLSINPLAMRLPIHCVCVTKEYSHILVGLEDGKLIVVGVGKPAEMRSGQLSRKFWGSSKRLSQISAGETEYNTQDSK

[2] = target: T2, EGFP-BEACH-WD40 (NBEAL1 1969–2694) (human) (UniProt Q6ZS30)
T2 sequence: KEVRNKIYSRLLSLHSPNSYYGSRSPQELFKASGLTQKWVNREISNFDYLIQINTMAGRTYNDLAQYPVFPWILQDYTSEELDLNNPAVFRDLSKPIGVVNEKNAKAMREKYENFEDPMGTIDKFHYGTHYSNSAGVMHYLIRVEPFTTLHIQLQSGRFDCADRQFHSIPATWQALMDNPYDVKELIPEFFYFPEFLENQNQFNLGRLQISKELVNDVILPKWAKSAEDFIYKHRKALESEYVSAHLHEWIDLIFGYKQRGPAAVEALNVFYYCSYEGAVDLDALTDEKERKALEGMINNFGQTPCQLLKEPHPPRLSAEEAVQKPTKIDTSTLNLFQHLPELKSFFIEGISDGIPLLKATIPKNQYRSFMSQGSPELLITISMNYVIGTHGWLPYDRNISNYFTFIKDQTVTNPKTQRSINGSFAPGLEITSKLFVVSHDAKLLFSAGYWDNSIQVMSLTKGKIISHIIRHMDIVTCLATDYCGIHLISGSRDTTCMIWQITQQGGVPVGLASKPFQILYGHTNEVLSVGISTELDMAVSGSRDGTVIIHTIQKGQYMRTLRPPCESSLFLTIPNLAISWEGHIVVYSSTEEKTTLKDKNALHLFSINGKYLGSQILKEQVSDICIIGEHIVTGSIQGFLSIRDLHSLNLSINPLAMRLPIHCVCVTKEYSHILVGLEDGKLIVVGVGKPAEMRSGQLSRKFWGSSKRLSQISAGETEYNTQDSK

[3] = target: T3, EGFP-BEACH (NBEAL1 aa 1991–2284) (human) (UniProt Q6ZS30)
T3 sequence: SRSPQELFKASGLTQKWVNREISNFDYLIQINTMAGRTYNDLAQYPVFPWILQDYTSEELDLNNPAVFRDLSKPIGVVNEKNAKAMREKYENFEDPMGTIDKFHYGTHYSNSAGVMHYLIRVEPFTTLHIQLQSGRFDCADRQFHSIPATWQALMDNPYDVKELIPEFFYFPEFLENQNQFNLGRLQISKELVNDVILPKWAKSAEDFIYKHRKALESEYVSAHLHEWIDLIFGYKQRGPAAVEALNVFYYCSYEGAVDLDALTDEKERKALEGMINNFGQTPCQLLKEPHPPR

- binding [1]: binds
- binding [2]: binds
- binding [3]: binds
B1: MYC-tagged human PAQR3 (progestin and adipoQ receptor family member 3) (protein, UniProt Q6TCH7 1-311)
chain: MHQKLLKSAHYIELGSYQYWPVLVPRGIRLYTYEQIPGSLKDNPYITDGYRAYLPSRLCIKSLFILSNETVNIWSHLLGFFLFFTLGIYDMTSVLPSASASREDFVICSICLFCFQVCMLCSVGYHLFSCHRSEKTCRRWMALDYAGISIGILGCYVSGVFYAFYCNNYWRQVYLITVLAMILAVFFAQIHPNYLTQQWQRLRSIIFCSVSGYGVIPTLHWVWLNGGIGAPIVQDFAPRVIVMYMIALLAFLFYISKVPERYFPGQLNYLGSSHQIWHILAVVMLYWWHQSTVYVMQYRHSKPCPDYVSHL
